Source: paper PMC10131864
These are yes or no findings as the source states them, for the method shown. Binding seen in cells or lysates may run through a third protein. Some binding calls cover weakened binding; strength is not graded here.

Protein sequences, listed by entry. Tags and fused reporters are not part of them.
UniProt P35222: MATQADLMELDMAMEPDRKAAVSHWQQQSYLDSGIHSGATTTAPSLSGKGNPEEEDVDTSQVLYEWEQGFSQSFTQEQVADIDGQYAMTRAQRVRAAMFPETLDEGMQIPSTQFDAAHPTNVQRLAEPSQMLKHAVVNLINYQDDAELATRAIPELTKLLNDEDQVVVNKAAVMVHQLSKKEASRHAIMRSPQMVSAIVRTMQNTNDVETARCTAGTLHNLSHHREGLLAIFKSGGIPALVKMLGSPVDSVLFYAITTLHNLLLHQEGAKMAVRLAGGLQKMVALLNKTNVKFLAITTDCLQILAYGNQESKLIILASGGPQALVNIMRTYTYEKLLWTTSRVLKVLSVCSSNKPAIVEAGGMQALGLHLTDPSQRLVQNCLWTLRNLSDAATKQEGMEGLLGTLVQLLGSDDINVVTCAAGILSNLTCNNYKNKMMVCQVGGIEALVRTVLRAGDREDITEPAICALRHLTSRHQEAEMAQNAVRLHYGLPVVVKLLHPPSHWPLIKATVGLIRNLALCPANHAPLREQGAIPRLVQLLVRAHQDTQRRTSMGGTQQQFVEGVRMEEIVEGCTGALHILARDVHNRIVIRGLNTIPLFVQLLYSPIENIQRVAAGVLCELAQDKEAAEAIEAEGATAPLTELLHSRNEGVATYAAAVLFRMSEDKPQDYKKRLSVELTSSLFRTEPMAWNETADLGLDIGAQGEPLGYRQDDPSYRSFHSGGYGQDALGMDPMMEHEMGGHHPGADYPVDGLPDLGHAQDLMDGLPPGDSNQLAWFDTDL

Target: T1, Phosphomevalonate kinase (PMVK) (human (endogenous in Huh7 and Hep3B)) (UniProt Q15126)
T1 sequence: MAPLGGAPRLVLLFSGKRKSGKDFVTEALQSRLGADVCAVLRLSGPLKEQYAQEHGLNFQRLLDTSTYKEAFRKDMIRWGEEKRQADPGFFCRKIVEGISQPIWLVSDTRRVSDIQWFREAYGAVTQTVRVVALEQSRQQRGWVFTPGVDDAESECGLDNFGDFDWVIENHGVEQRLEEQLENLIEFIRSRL
Test: co-IP; endogenous proteins in Huh7 and Hep3B cell lines; anti-PMVK antibody (H-9) from mouse as IP antibody, mouse IgG as negative control; immunoblot

β-catenin (from UniProt P35222 1-781)
binding: binds
